Paper PMC12431657, “Discovery and mechanistic insights of dibenzoylmethane as a broad spectrum inhibitor of coronavirus” (PLOS Pathogens, 2025)
Where a name gives a salt, the structure may show the parent alone. Read-outs that look alike come from different tables or passages of the source. Out of some 3,300 compounds screened, about 60 (2%) showed an effect of 50% or more. The list shows a part of the results.

Tested on: HCoV-OC43
Design: species or system RD; HTS, protection from HCoV-OC43 induced cell death, luminescent cell viability (CellCounting-Lite 2.0), inhibition rate
Conditions: 24 h post infection, 1 h compound pre-incubation, 10 µM, inhibitor

| SMILES | OC43 Inhibition rate [%] | OC43 Inhibition rate (OC43 Inhibition rate, 24 h) [%] |
| --- | --- | --- |
| COC(=O)c1c(O)cc(O)cc1O [Methyl 2,4,6-trihydroxybenzoate] | 0 |  |
| CC1(C)CC[C@]2(C(=O)O)CC[C@]3(C)C(=CC[C@@H]4[C@@]5(C)CC[C@H](O)[C@@](C)(CO)[C@@H]5CC[C@]43C)[C@@H]2C1 [Hederagenin] | -3.7 |  |
| O=C1c2ccccc2C(=O)c2c(O)ccc(O)c21 [Quinizarin] | -0.1 |  |
| CC1=CCC(O)(C(C)C)CC1 (stereo not drawn) [Terpinen-4-ol] | -0.7 |  |
| O=C(N[C@H](COC(=O)[C@H](Cc1ccccc1)NC(=O)c1ccccc1)Cc1ccccc1)c1ccccc1 [Asperphenamate] | -0.3 |  |
| CC1(C)CC[C@]2(C(=O)O)[C@H](O)C[C@]3(C)C(=CC[C@@H]4[C@@]5(C)CC[C@H](O)C(C)(C)[C@@H]5CC[C@]43C)[C@@H]2C1 [Echinocystic acid] | -2.7 |  |
| Oc1ccc(CC2NCCc3cc(O)c(O)cc32)cc1 (stereo not drawn) [Higenamine (hydrochloride)] | 0.1 |  |
| C/C=C(/C)C(=O)O [Angelic acid] | -0.3 |  |
| CC1(C)CC[C@]2(C(=O)O)CC[C@]3(C)C(=CC[C@@H]4[C@@]5(C)CC[C@H](O[C@@H]6OC[C@H](O)[C@H](O)[C@H]6O[C@@H]6O[C@H](CO)[C@@H](O)[C@H](O)[C@H]6O)[C@@](C)(CO)[C@@H]5CC[C@]43C)[C@@H]2C1 [Cauloside C] | -1.5 |  |
| C=C[C@H]1[C@H](O[C@@H]2O[C@H](CO)[C@@H](O)[C@H](O)[C@H]2O)OC=C(C(=O)OC)[C@H]1CC=O [Secologanin] | -2.6 |  |
| C/C=C/C=C/C(=O)O [Sorbic acid] |  | -1.1 |
| NCCc1cc(O)c(O)c(O)c1 [5-Hydroxydopamine hydrochloride] | 7.7 |  |
| COc1c(CC=C(C)C)c(O)cc2oc(=O)c3c4ccc(O)cc4oc3c12 [Neoglycyrol] | 113.3 |  |
| O=Cc1cccc(O)c1 [3-Hydroxybenzaldehyde] | 0.6 |  |
| COc1cc2c(cc1OC)[C@H](C)NCC2 [Salsolidine] | 0.2 |  |
| NC(Cc1cccc(O)c1)C(=O)O (racemic) [DL-m-Tyrosine] | -0.3 |  |
| O=c1cc(-c2ccccc2)oc2cc(O[C@@H]3O[C@H](CO)[C@@H](O)[C@H](O)[C@H]3O)c(O)c(O)c12 [Oroxin A] | -1 |  |
| C=C(C)C(=O)Cc1c(OC)ccc2ccc(=O)oc12 [Murrayone] | -0.4 |  |
| C[Se]CC[C@H](N)C(=O)O [Selenomethionine] |  | 1.2 |
| O=C(O)CCCCCCCCCCCCC(=O)O [Tetradecanedioic acid] | -1.6 |  |
| O=c1cc(-c2ccc(O)cc2)oc2cc(O)cc(O)c12 [Apigenin] | 2 |  |

| SMILES | OC43 Inhibition rate [%] | OC43 Inhibition rate (OC43 Inhibition rate, 24 h) [%] |
| --- | --- | --- |
| CCCCCCCCCCCCCCC(O)C(=O)O (stereo not drawn) [2-Hydroxypalmitic acid] | 0.1 |  |
| O=C1C[C@@H](c2ccc(O[C@@H]3O[C@H](CO)[C@@H](O)[C@H](O)[C@H]3O[C@H]3OC[C@@](O)(CO)[C@@H]3O)cc2)Oc2cc(O)ccc21 [Liquiritin apioside] | -0.2 |  |
| C=C(C)[C@H]1Cc2c(ccc3c2O[C@@H]2COc4cc(OC)c(OC)cc4[C@@H]2C3=O)O1 [Rotenone] | -1.8 |  |
| O=c1cc(-c2ccccc2)oc2cc(O)cc(O[C@@H]3O[C@H](CO)[C@@H](O)[C@H](O)[C@H]3O)c12 [Toringin] | -0.6 |  |
| CC(C)(O[C@@H]1O[C@H](CO)[C@@H](O)[C@H](O)[C@H]1O)[C@@H]1CC[C@](O)(CO)[C@H]2CC(=O)[C@@](C)(O)[C@@H]2C1 [Atractyloside A] | 0 |  |
| CC(C)=CCCC(C)CCO (stereo not drawn) [Citronellol] | -0.8 |  |
| CC1(C)CCC[C@](C)([C@H]2CC[C@]3(C)[C@@H]2[C@H](O)C[C@@H]2[C@@]4(C)CC[C@H](O)C(C)(C)[C@@H]4[C@@H](O)C[C@]23C)O1 [Panaxatriol] | 12.5 |  |
| COc1cc2ccc(=O)oc2c(OC)c1OC [Dimethylfraxetin] | -0.5 |  |
| CC1(C)COC(=O)C1O (racemic) [DL-Pantolactone] | -0.5 |  |
| C=CCc1ccc(OC(C)=O)c(OC)c1 [Eugenol acetate] | 1.2 |  |
| COc1cc2c(cc1CC=C(C)C)C(=O)C[C@@H](c1ccc(O)cc1)O2 [Bavachinin] | 20.3 |  |
| CC(N)=O [Acetamide] | -2.6 |  |
| C/C=C(/C)C(=O)O[C@H]1[C@H](OC(C)=O)[C@@]2(CO)C(CC1(C)C)C1=CCC3[C@@]4(C)CC[C@H](O[C@@H]5O[C@H](C(=O)O)[C@@H](O[C@@H]6O[C@H](CO)[C@@H](O)[C@H](O)[C@H]6O)[C@H](O)[C@H]5O[C@@H]5O[C@H](CO)[C@@H](O)[C@H](O)[C@H]5O)[C@](C)(CO)C4CC[C@@]3(C)[C@]1(C)C[C@H]2O (stereo partly drawn) [Saponins] | -0.4 |  |
| CC(C)=CC[C@]12Oc3cc(O)c([C@H]4C=C(C)C[C@H](c5ccc(O)cc5O)[C@H]4C(=O)c4ccc(O)cc4O)c(O)c3C(=O)[C@@]1(O)Oc1cc(O)ccc12 [Sanggenon C] | -9.1 |  |
| COc1ccc(-c2cc(=O)c3c(O)cc(O)cc3o2)cc1O [Diosmetin] | 2.2 |  |
| CC1(C)Oc2cc3oc(=O)ccc3cc2CC1O (racemic) [(±)-Decursinol] | -1 |  |
| CCCCCCCCCC(C)O (stereo not drawn) [2-Undecanol] | 0.6 |  |
| OCC1CCCCO1 (stereo not drawn) [2-Hydroxymethyltetrahydropyran] | 0 |  |
| CC(=O)N[C@@H](CC(C)C)C(=O)O [N-Acetyl-L-leucine] | 0.2 |  |
| C=CC[S+]([O-])C[C@H](N)C(=O)O (stereo partly drawn) [Alliin] | 0 |  |
| Nc1nc(=O)c2nc(CNc3ccc(C(=O)N[C@@H](CCC(=O)O)C(=O)O)cc3)cnc2[nH]1 [Folic acid] | 0.4 |  |

| SMILES | OC43 Inhibition rate [%] | OC43 Inhibition rate (OC43 Inhibition rate, 24 h) [%] |
| --- | --- | --- |
| COc1cc(-c2cc(=O)c3c(O)c(OC)c(O)cc3o2)cc(O)c1OC [5,7,3'-Trihydroxy-6,4',5'-trimethoxyflavone] | 0 |  |
| O=C(O)c1c[nH]c2ccccc12 [Indole-3-carboxylic acid] | -1.3 |  |
| O=C(O[C@@H]1Cc2c(O)cc(O)cc2O[C@@H]1c1cc(=O)c(O)c2c(O)c(O)cc([C@H]3Oc4cc(O)cc(O)c4C[C@H]3O)c2c1)c1cc(O)c(O)c(O)c1 [Theaflavin-3-gallate] |  | -0.8 |
| CCCCCCCC(=O)O[C@H](CC(=O)[O-])C[N+](C)(C)C [L-Octanoylcarnitine] | -0.3 |  |
| CC(C)(O)[C@@H]1Cc2cc3ccc(=O)oc3cc2O1 [S-(+)-Marmesin] | -0.1 |  |
| C=C1CC[C@]2(C)CC[C@]3(C)[C@H](CC[C@@H]4[C@@]5(C)CC[C@H](O)C(C)(C)[C@@H]5CC[C@]43C)[C@H]2[C@@H]1C [Taraxasterol] | 9.1 |  |
| COc1ccc(C=O)c(O)c1 [2-Hydroxy-4-methoxybenzaldehyde] | 2.9 |  |
| Nc1cc(C(=O)O)ccc1O [3-Amino-4-hydroxybenzoic acid] | -0.5 |  |
| O=C(O)CCCCCCC(=O)O [Suberic acid] | -1.4 |  |
| OC[C@H]1O[C@@](CO)(OC[C@@]2(OC[C@@]3(OC[C@@]4(OC[C@@]5(O[C@H]6O[C@H](CO)[C@@H](O)[C@H](O)[C@H]6O)O[C@H](CO)[C@@H](O)[C@@H]5O)O[C@H](CO)[C@@H](O)[C@@H]4O)O[C@H](CO)[C@@H](O)[C@@H]3O)O[C@H](CO)[C@@H](O)[C@@H]2O)[C@@H](O)[C@@H]1O [1,1,1,1-Kestohexaose] | 2.3 |  |
| COc1cc(-c2coc3cc(O)c(OC)c(O)c3c2=O)cc(O)c1OC [Irigenin] | -0.2 |  |
| O=Cc1ccc(CO)o1 [5-Hydroxymethylfurfural] | -0.2 |  |
| CCCCCCc1cccs1 [2-Hexylthiophene] | 1.7 |  |
| O=C(/C=C/c1ccc(O)c(O)c1)O[C@H]1[C@H](O)C[C@](O)(C(=O)O)C[C@H]1OC(=O)/C=C/c1ccc(O)c(O)c1 [3,4-Dicaffeoylquinic acid] | 6.5 |  |
| CC1(C)Oc2cc3oc(-c4cc(O)cc(O[C@@H]5OC[C@@H](O)[C@H](O)[C@H]5O)c4)cc3cc2CC1O (stereo partly drawn) [Mulberroside C] | 5.8 |  |
| CC/C=C\C/C=C\C/C=C\CCCCCCCC(=O)OCC [Ethyl linolenate] | -0.4 |  |
| N[C@@H](CCSSCC[C@H](N)C(=O)O)C(=O)O [L-Homocystine] | -1.2 |  |
| Nc1ncnc2c1ncn2[C@H]1C[C@H](O)[C@@H](COP(=O)(O)OP(=O)(O)OP(=O)(O)O)O1 [2'-Deoxyadenosine-5'-triphosphate (trisodium)] | 9.3 |  |
| C[C@H](CC[C@@H](O[C@@H]1O[C@H](CO[C@@H]2O[C@H](CO)[C@@H](O)[C@H](O)[C@H]2O)[C@@H](O)[C@H](O)[C@H]1O)C(C)(C)O)[C@H]1CC[C@@]2(C)[C@@H]3CC=C4[C@@H](CC[C@H](O)C4(C)C)[C@]3(C)[C@H](O)C[C@]12C [Mogroside IIA1] | -0.4 |  |
| COc1cc(/C=C/C(O)=C/C(=O)/C=C/c2ccc(O)cc2)ccc1O [Demethoxycurcumin] | 6.8 |  |
| CC(=O)OC[C@]12[C@H](OC(C)=O)[C@H](OC(C)=O)[C@@H]3[C@@H](OC(C)=O)[C@@]14O[C@@]3(C)COC(=O)c1cccnc1CCC(C)C(=O)O[C@@H]([C@H](OC(=O)c1ccco1)[C@@H]2OC(C)=O)[C@]4(C)O (stereo partly drawn) [Wilforgine] | 0.7 |  |

One compound at a time, as listed above:
OC[C@H]1O[C@@](CO)(OC[C@@]2(OC[C@@]3(OC[C@@]4(OC[C@@]5(O[C@H]6O[C@H](CO)[C@@H](O)[C@H](O)[C@H]6O)O[C@H](CO)[C@@H](O)[C@@H]5O)O[C@H](CO)[C@@H](O)[C@@H]4O)O[C@H](CO)[C@@H](O)[C@@H]3O)O[C@H](CO)[C@@H](O)[C@@H]2O)[C@@H](O)[C@@H]1O [1,1,1,1-Kestohexaose] as listed: OC43 Inhibition rate [%]: 2.3
O=C(O)c1c[nH]c2ccccc12 [Indole-3-carboxylic acid] as listed: OC43 Inhibition rate [%]: -1.3
O=C(/C=C/c1ccc(O)c(O)c1)O[C@H]1[C@H](O)C[C@](O)(C(=O)O)C[C@H]1OC(=O)/C=C/c1ccc(O)c(O)c1 [3,4-Dicaffeoylquinic acid] as listed: OC43 Inhibition rate [%]: 6.5
CC(C)(O)[C@@H]1Cc2cc3ccc(=O)oc3cc2O1 [S-(+)-Marmesin] as listed: OC43 Inhibition rate [%]: -0.1
